According to publication PMC3513190:
For at least one entry, the source does not settle the construct or the ends of the probe. At least one result comes from cells or an extract, where the contact may be indirect. Negatives hold for the conditions tested. At least one verdict rests on a figure or table, not on a statement of the authors.

Chains of the proteins cited; added tags and fusions are not shown. Residues count along the entry.
UniProt P16422, 24-314: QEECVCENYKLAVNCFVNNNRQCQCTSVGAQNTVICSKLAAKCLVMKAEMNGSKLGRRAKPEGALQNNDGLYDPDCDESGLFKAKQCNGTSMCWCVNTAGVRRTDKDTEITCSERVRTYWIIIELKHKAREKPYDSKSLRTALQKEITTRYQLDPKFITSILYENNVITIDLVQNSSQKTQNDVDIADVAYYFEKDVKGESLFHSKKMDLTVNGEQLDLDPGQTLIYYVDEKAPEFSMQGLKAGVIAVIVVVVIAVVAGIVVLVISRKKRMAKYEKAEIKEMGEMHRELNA

Molecular target: EpCAM (epithelial cell adhesion molecule) on RB tumor cells, Y79 and WERI-Rb1 (UniProt P16422)
Experiment: flow cytometry
Conditions: 100 nM aptamer, PBS with 5 mM MgCl2, 0.1 mg/ml tRNA, 0.1 mg/ml salmon sperm DNA, on ice 1 h, pH not stated, protein on the cell surface

Sequence	binding result (RB primary tumor cells (n=4), 5 mM MgCl2, text: did not bind, legend: least binding, 2'-OMe pyrimidines)	binding result (WERI-Rb1 cells, 5 mM MgCl2, 2'-OMe pyrimidines)	binding result (Y79 cells, 5 mM MgCl2, 2'-OMe pyrimidines)	binding result (RB primary tumor cells (n=4), 5 mM MgCl2, 35% of cells bound, 2'-fluoro pyrimidines)	binding result (WERI-Rb1 cells, 5 mM MgCl2, 2'-fluoro pyrimidines)	binding result (Y79 cells, 5 mM MgCl2, 2'-fluoro pyrimidines)
GCGACUGGUUACCCGGUCG [Scr-EpDT3-FI]	no binding	no binding	no binding			
GCGACUGGUUACCCGGUCG [EpDT3-FI]				binds	binds	binds
